Measured data: PubChem BioAssay AID743121 (NCATS, 2013)
In all, the deposit lists about 26,000 reagents; below is a part drawn at random. Over the whole deposit, 167 (0.63%) are marked active. 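Calls are per gene from RSA p-values that are not deposited; an individual active-marked siRNA can sensitise only weakly.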 Entries without a mark were called inactive. The numbers tell different reagents against one gene apart. Not all columns of the deposit are shown.

- Aim: 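Partners whose loss is lethal together with topoisomerase I blockade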 (primary screen)
- System: MDA-MB-231 cells, a human breast cancer line
- Reagents: single siRNA against human genes, 20 nM siRNA (0.8 pmol per well)
- Timing: 120 h (drug added 48 h after transfection, read 72 h later)
- Challenge: camptothecin 20 nM (about EC30) for 72 h; vehicle 0.1% DMSO in parallel plates
- Measurement: 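CellTiter-Glo ATP signal, scaled to control siRNA as percent viability; sensitisation given as log2 of untreated divided by camptothecin-treated viability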
- Direction: log2 vehicle/camptothecin viability: higher = stronger sensitisation to camptothecin
- Active means: 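Active genes have an RSA gene-level p-value below 0.001, computed from the ratios of their separate siRNAs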

| gene | reagent no. | log2 vehicle/camptothecin viability |
| --- | --- | --- |
| OR10AD1 | 1 | -0.115 |
| OR10AD1 | 2 | -0.319 |
| OR10AD1 | 3 | -0.622 |
| OR10AD1 | 4 | -0.316 |
| ADRB2 | 1 | 0.0305 |
| ADRB2 | 2 | 0.0505 |
| ADRB2 | 3 | -0.101 |
| ADRB2 | 4 | -0.525 |
| XRCC2 | 1 | -0.0863 |
| XRCC2 | 2 | -0.0567 |
| XRCC2 | 3 | -0.325 |
| GPR173 | 1 | -0.224 |
| GPR173 | 2 | -0.684 |
| GPR173 | 3 | -1.16 |
| GPR173 | 4 | -0.36 |
| ARHGAP32 | 1 | 0.0493 |
| ARHGAP32 | 2 | -0.123 |
| ARHGAP32 | 3 | -0.147 |
| PLK1 | 1 | -0.247 |
| PLK1 | 2 | -0.0628 |
| PLK1 | 3 | -0.843 |
| PLK1 | 4 | 0.367 |
| CYP3A43 | 1 | -0.282 |
| CYP3A43 | 2 | -0.381 |
| CYP3A43 | 3 | -0.225 |
| CYP3A43 | 4 | -0.289 |
| MIDN | 1 | 0.365 |
| MIDN | 2 | -0.0481 |
| MIDN | 3 | 0.463 |
| MIDN | 4 | 0.0621 |
| CYP26A1 | 1 | -0.396 |
| CYP26A1 | 2 | -0.235 |
| CYP26A1 | 3 | 0.219 |
| CYP26A1 | 4 | -0.614 |
| MTSS1 | 1 | 0.103 |
| MTSS1 | 2 | -0.0279 |
| MTSS1 | 3 | -0.317 |
| MTSS1 | 4 | -0.342 |
| AMACR | 1 | -0.358 |
| AMACR | 2 | -0.2 |
| AMACR | 3 | -0.405 |
| PTTG1 | 1 | 0.965 |
| PTTG1 | 2 | -0.456 |
| PTTG1 | 3 | 0.289 |
| PTTG1 | 4 | -0.174 |
| PER2 | 1 | -0.166 |
| PER2 | 2 | 0.0865 |
| PER2 | 3 | -0.35 |
| PER2 | 4 | -0.338 |
| FBXL14 | 1 | -0.138 |
| FBXL14 | 2 | -0.078 |
| FBXL14 | 3 | -0.161 |
| FBXL14 | 4 | 0.0958 |
| PRSS36 | 1 | -0.696 |
| PRSS36 | 2 | 0.26 |
| PRSS36 | 3 | -0.374 |
| PRSS36 | 4 | -0.429 |
| ARSB | 1 | -0.144 |
| ARSB | 2 | 0.41 |
| ARSB | 3 | -0.0996 |
| ARSB | 4 | 0.0515 |
| RTN4IP1 | 1 | 0.155 |
| RTN4IP1 | 2 | 0.805 |
| RTN4IP1 | 3 | -0.151 |
| RTN4IP1 | 4 | 0.102 |
| HMGA2 | 1 | -0.0671 |
| HMGA2 | 2 | -0.173 |
| HMGA2 | 3 | -0.189 |

In a second layout: entries from further up
gene,reagent no.,log2 vehicle/camptothecin viability
PLK1,4,0.367
CYP3A43,1,-0.282
CYP3A43,2,-0.381
CYP3A43,3,-0.225
